Drawing on paper doi:10.1101/2021.03.29.437469, this text covers binding for six molecules.

T1: C-terminally TAP-tagged Tif4631p (S. cerevisiae) (UniProt P39935)
T1 sequence: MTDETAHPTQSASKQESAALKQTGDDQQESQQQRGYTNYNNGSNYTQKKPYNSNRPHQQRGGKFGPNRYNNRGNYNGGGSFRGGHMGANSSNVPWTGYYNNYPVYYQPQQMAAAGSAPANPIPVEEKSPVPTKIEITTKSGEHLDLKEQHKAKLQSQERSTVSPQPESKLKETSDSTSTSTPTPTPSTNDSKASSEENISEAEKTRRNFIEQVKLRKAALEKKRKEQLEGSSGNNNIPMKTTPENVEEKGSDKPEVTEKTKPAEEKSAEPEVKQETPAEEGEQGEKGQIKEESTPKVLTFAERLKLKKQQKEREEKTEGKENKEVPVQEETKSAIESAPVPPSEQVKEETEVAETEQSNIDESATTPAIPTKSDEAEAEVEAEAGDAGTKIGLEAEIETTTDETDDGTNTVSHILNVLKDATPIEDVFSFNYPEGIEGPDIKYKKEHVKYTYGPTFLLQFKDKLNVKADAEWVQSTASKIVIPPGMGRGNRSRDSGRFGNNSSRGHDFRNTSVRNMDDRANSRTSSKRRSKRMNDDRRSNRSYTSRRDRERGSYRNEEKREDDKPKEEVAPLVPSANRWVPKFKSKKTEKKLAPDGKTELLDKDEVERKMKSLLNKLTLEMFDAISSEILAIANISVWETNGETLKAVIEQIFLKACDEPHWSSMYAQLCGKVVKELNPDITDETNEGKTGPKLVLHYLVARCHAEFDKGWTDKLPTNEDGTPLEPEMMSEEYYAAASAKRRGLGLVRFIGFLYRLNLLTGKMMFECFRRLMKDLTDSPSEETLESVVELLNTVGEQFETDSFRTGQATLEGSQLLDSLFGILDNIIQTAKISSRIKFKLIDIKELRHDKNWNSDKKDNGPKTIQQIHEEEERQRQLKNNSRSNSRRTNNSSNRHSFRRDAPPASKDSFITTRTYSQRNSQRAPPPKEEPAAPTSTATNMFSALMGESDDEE

B1: Dcp2p (protein, UniProt P53550 1-970)
chain: MSLPLRHALENVTSVDRILEDLLVRFIINCPNEDLSSVERELFHFEEASWFYTDFIKLMNPTLPSLKIKSFAQLIIKLCPLVWKWDIRVDEALQQFSKYKKSIPVRGAAIFNENLSKILLVQGTESDSWSFPRGKISKDENDIDCCIREVKEEIGFDLTDYIDDNQFIERNIQGKNYKIFLISGVSEVFNFKPQVRNEIDKIEWFDFKKISKTMYKSNIKYYLINSMMRPLSMWLRHQRQIKNEDQLKSYAEEQLKLLLGITKEEQIDPGRELLNMLHTAVQANSNNNAVSNGQVPSSQELQHLKEQSGEHNQQKDQQSSFSSQQQPSIFPSLSEPFANNKNVIPPTMPMANVFMSNPQLFATMNGQPFAPFPFMLPLTNNSNSANPIPTPVPPNFNAPPNPMAFGVPNMHNLSGPAVSQPFSLPPAPLPRDSGYSSSSPGQLLDILNSKKPDSNVQSSKKPKLKILQRGTDLNSIKQNNNDETAHSNSQALLDLLKKPTSSQKIHASKPDTSFLPNDSVSGIQDAEYEDFESSSDEEVETARDERNSLNVDIGVNVMPSEKDSRRSQKEKPRNDASKTNLNASAESNSVEWGPGKSSPSTQSKQNSSVGMQNKYRQEIHIGDSDAYEVFESSSDEEDGKKLEELEQTQDNSKLISQDILKENNFQDGEVPHRDMPTESNKSINETVGLSSTTNTVKKVPKVKILKRGETFASLANDKKAFDSSSNVSSSKDLLQMLRNPISSTVSSNQQSPKSQHLSGDEEIMMMLKRNSVSKPQNSEENASTSSINDANASELLGMLKQKEKDITAPKQPYNVDSYSQKNSAKGLLNILKKNDSTGYPRTEGGPSSEMSTSMKRNDATNNQELDKNSTELLNYLKPKPLNDGYENISNKDSSHELLNILHGNKNSSAFNNNVYATDGYSLASDNNENSSNKLLNMLQNRSSAINEPNFDVRSNGTSGSNELLSILHRK
B2: Ski2p (protein, UniProt P35207 1-1287)
chain: MSEGFSSSSIQELYQSLKEITNNADVELFEDRITKLDFESTDEPKHANDIIKDRFLRPSNALPWSLLDMVQDVPHTSSPEDCSGKLDYKELLKVPDPINRTSYQFKRTGLEGKISGYKEEVDLKEVANANASNSLSITRSINHNQNSVRGSTAQLPFTPGGIPMKSVKTDSEQNGSSTMANATKLLHKDGQGLFDIPEGMNRGIKPMDSPAENEDQNGQFKELKQLNEIDNELDIRIEANEAKLKEEEKSAKSISEEIMEEATEETTADNADDAEIDELLPIGIDFGRTKPVSKSVPVKKEWAHVVDLNHKIENFDELIPNPARSWPFELDTFQKEAVYHLEQGDSVFVAAHTSAGKTVVAEYAIAMAHRNMTKTIYTSPIKALSNQKFRDFKETFDDVNIGLITGDVQINPDANCLIMTTEILRSMLYRGADLIRDVEFVIFDEVHYVNDQDRGVVWEEVIIMLPQHVKFILLSATVPNTYEFANWIGRTKQKNIYVISTPKRPVPLEINIWAKKELIPVINQNSEFLEANFRKHKEILNGESAKGAPSKTDNGRGGSTARGGRGGSNTRDGRGGRGNSTRGGANRGGSRGAGAIGSNKRKFFTQDGPSKKTWPEIVNYLRKRELLPMVVFVFSKKRCEEYADWLEGINFCNNKEKSQIHMFIEKSITRLKKEDRDLPQILKTRSLLERGIAVHHGGLLPIVKELIEILFSKGFIKVLFATETFAMGLNLPTRTVIFSSIRKHDGNGLRELTPGEFTQMAGRAGRRGLDSTGTVIVMAYNSPLSIATFKEVTMGVPTRLQSQFRLTYNMILNLLRIEALRVEEMIKYSFSENAKETLQPEHEKQIKVLQEELQTIEYKSCEICDNDIEKFLELMLAYKEATVNLMQEMVKSPSILHILKEGRLVAFRDPNDCLKLGFVFKVSLKDAVCVIMTFTKPYKLPNGEPNHLIYFPKADGYRRRNFPKFQKTDFYMEEVPVTAIEVITKRKFAAPLGKVIKKDVAALNEFNAETNNILDGKTLKEAINIEKQGLKIHQILLDRTNIRDEIFKLKSIKCPNLSQHIVPKFKAHVIKKKIEELYHLMSDQNLSLLPDYEKRLAVLKDTEFIDQNHNVLLKGRVACEINSGYELVLTELILDNFLGSFEPEEIVALLSVFVYEGKTREEEPPIVTPRLAKGKQRIEEIYKKMLCVFNTHQIPLTQDEAEFLDRKRFAMMNVVYEWARGLSFKEIMEMSPEAEGTVVRVITWLDEICREVKTASIIIGNSTLHMKMSRAQELIKRDIVFAASLYL
B3: Nmd2p (protein, UniProt P38798 1-1089)
chain: MDDGRKKELHDLNTRAWNGEEVFPLKSKKLDSSIKRNTGFIKKLKKGFVKGSESSLLKDLSEASLEKYLSEIIVTVTECLLNVLNKNDDVIAAVEIISGLHQRFNGRFTSPLLGAFLQAFENPSVDIESERDELQRITRVKGNLRVFTELYLVGVFRTLDDIESKDAIPNFLQKKTGRKDPLLFSILREILNYKFKLGFTTTIATAFIKKFAPLFRDDDNSWDDLIYDSKLKGALQSLFKNFIDATFARATELHKKVNKLQREHQKCQIRTGKLRDEYVEEYDKLLPIFIRFKTSAITLGEFFKLEIPELEGASNDDLKETASPMITNQILPPNQRLWENEDTRKFYEILPDISKTVEESQSSKTEKDSNVNSKNINLFFTDLEMADCKDIIDDLSNRYWSSYLDNKATRNRILKFFMETQDWSKLPVYSRFIATNSKYMPEIVSEFINYLDNGFRSQLHSNKINVKNIIFFSEMIKFQLIPSFMIFHKIRTLIMYMQVPNNVEILTVLLEHSGKFLLNKPEYKELMEKMVQLIKDKKNDRQLNMNMKSALENIITLLYPPSVKSLNVTVKTITPEQQFYRILIRSELSSLDFKHIVKLVRKAHWDDVAIQKVLFSLFSKPHKISYQNIPLLTKVLGGLYSYRRDFVIRCIDQVLENIERGLEINDYGQNMHRISNVRYLTEIFNFEMIKSDVLLDTIYHIIRFGHINNQPNPFYLNYSDPPDNYFRIQLVTTILLNINRTPAAFTKKCKLLLRFFEYYTFIKEQPLPKETEFRVSSTFKKYENIFGNTKFERSENLVESASRLESLLKSLNAIKSKDDRVKGSSASIHNGKESAVPIESITEDDEDEDDENDDGVDLLGEDEDAEISTPNTESAPGKHQAKQDESEDEDDEDDDEDDDDDDDDDDDDGEEGDEDDDEDDDDEDDDDEEEEDSDSDLEYGGDLDADRDIEMKRMYEEYERKLKDEEERKAEEELERQFQKMMQESIDARKSEKVVASKIPVISKPVSVQKPLLLKKSEEPSSSKETYEELSKPKKIAFTFLTKSGKKTQSRILQLPTDVKFVSDVLEEEEKLKTERNKIKKIVLKRSFD
B4: Nrd1p (protein, UniProt P53617 1-575)
chain: MQQDDDFQNFVATLESFKDLKSGISGSRIKKLTTYALDHIDIESKIISLIIDYSRLCPDSHKLGSLYIIDSIGRAYLDETRSNSNSSSNKPGTCAHAINTLGEVIQELLSDAIAKSNQDHKEKIRMLLDIWDRSGLFQKSYLNAIRSKCFAMDISNNTANTASQQLSLDPKQRSKQILSNLKKSPPLNLNISLPTDLTSTDPAKQQAALFQVIAALQKHFKTLPSHTSVGTVAPPQAHTITEYGSRRERERERERYNSRRNRSRSPPAPFSQPSTGRKDRYPSVAQDQYSIGAPNTTFGTNNHHLYPDELNVSNNPHYRPKPVSYDSTLPPDHIKVYSRTLFIGGVPLNMKEWDLANVLKPFAEVQSVILNNSRKHAFVKVYSRHEAENVLQNFNKDGALPLRTRWGVGFGPRDCCDYQHGYSIIPMHRLTDADKKWSVSAQWGGTSGQPLVTGIVFEEPDIIVGEGVSSKAISQKMPTDSGRNGPRSGKPNKSGSISSISPVPYGNAPLASPPPQQYVQPMMQQPYGYAPNQPLPSQGPAAAAPPVPQQQFDPTAQLNSLMNMLNQQQQQQQQS
B5: Rrp4p (protein, UniProt P38792 1-359)
chain: MSEVITITKRNGAFQNSSNLSYNNTGISDDENDEEDIYMHDVNSASKSESDSQIVTPGELVTDDPIWMRGHGTYFLDNMTYSSVAGTVSRVNRLLSVIPLKGRYAPETGDHVVGRIAEVGNKRWKVDIGGKQHAVLMLGSVNLPGGILRRKSESDELQMRSFLKEGDLLNAEVQSLFQDGSASLHTRSLKYGKLRNGMFCQVPSSLIVRAKNHTHNLPGNITVVLGVNGYIWLRKTSQMDLARDTPSANNSSSIKSTGPTGAVSLNPSITRLEEESSWQIYSDENDPSISNNIRQAICRYANVIKALAFCEIGITQQRIVSAYEASMVYSNVGELIEKNVMESIGSDILTAEKMRGNGN

Results are given in words; binding and its absence hold for the method and conditions named. Binding seen in cells or lysates may run through a third protein. Here binding means that the protein was enriched with, or labelled near, the bait; the list need not be complete. Tags and fused reporters may be left off the sequences shown.

For the first assay, the target named is T1, C-terminally TAP-tagged Tif4631p (S. cerevisiae). Put plainly: affinity purification with mass spectrometry.
As for B1, the binding result is reported as “binds”. The same measure, in the same setting: the value for B2 was “binds”. B3: the binding entry is recorded as “binds”.

Another assay has the same target. Put plainly: affinity purification with mass spectrometry. The source holds these as a separate data set.
“Tif2B (S. cerevisiae (endogenous in yeast))”: the binding result is on record as “binds”. As for B4, the binding entry is “binds”. Still for that read-out and setting: the value for B5 was “binds”.
